Record: PubChem BioAssay AID686943 (Drosophila RNAi Screening Center, 2013)

- Purpose: 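Fly genes whose loss alters ERK activation after insulin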 (primary screen)
- System: Drosophila S2R+ haemocyte-like cells expressing YFP-tagged ERK (Rolled)
- Reagents: long dsRNA against Drosophila genes
- Conditions: insulin stimulation versus unstimulated cells; dose and duration not given
- Measured: 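Antibody staining for doubly phosphorylated ERK divided by ERK-YFP signal, as plate z-scores, in insulin-treated and untreated cells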
- Direction: replicate 1, z-score of dpERK with insulin: higher = more active ERK per ERK-YFP after insulin
In all, the deposit lists about 23,000 reagents; shown is a random part of those with a known target gene and a result. 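Extra replicates exist only for a retested subset of genes; insulin dose and duration not given; both raised and lowered dpERK matter.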 Not all columns of the deposit are shown. Not stated in the record: the amount of reagent, the time to read-out.

rempA [DRSC00327]
- replicate 1, z-score of dpERK with insulin: -0.28

Fas2 [DRSC17308]
- replicate 1, z-score of dpERK with insulin: -1.43

Fas2 [DRSC17309]
- replicate 1, z-score of dpERK with insulin: -0.13

Fas2 [DRSC18664]
- replicate 1, z-score of dpERK with insulin: -0.08

CG13024 [DRSC09904]
- replicate 1, z-score of dpERK with insulin: -0.38

lncRNA:CR43485 [DRSC08059]
- replicate 1, z-score of dpERK with insulin: 0.21

CG30467 [DRSC07097]
- replicate 1, z-score of dpERK with insulin: -0.05

Ppi1 [DRSC15421]
- replicate 1, z-score of dpERK with insulin: -0.93

Cpr31A [DRSC02779]
- replicate 1, z-score of dpERK with insulin: 0.24

skd [DRSC11898]
- replicate 1, z-score of dpERK with insulin: 2.41

CG33109 [DRSC16533]
- replicate 1, z-score of dpERK with insulin: -0.17

MFS10 [DRSC19888]
- replicate 1, z-score of dpERK with insulin: 0.13

Laid out differently: results already given
{"gene knocked down":"Ppi1","amplicon":"DRSC15421","replicate 1, z-score of dpERK with insulin":-0.93}
{"gene knocked down":"Cpr31A","amplicon":"DRSC02779","replicate 1, z-score of dpERK with insulin":0.24}
